PubChem BioAssay AID686937, Drosophila RNAi Screening Center | 2013
In all, the deposit lists about 23,000 reagents; shown is a random part of those with a known target gene and a result. 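Reduced-secretion tags in replicate 1 do not always agree with the z-scores; no criterion for assigning the tags was given.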 A plus sign joins genes that one reagent is predicted to hit. The record does not give: the amount of reagent.

- Aim: 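Genes in the fly needed for secretion of protein constitutively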 (primary screen)
- Cells: Drosophila S2 cells expressing secreted horseradish peroxidase
- Reagents: long dsRNA against Drosophila genes
- Time to read-out: about 5.5 days (5 days dsRNA, then 12 h reporter induction)
- Treatment: reporter expression induced after 5 days of dsRNA, read 12 h later; inducer not stated
- Measured: 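After 5 days of dsRNA and 12 h of reporter induction, medium peroxidase read by chemiluminescence and scored as per-plate z-score; higher values mean more reporter released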
- Direction: z-score: higher = more reporter secreted into medium

target | amplicon | z-score, replicate 1 | z-score, replicate 2 | z-score, replicate 3 | z-score, replicate 4 | phenotype, replicate 1
CG31253 + CG31131 | DRSC13839 | -0.36 | 0.45 | – | – | –
Mcm2 (Minichromosome maintenance 2) | DRSC16734 | -0.08 | 0.04 | – | – | –
trh (trachealess) | DRSC08355 | 0.45 | 0.38 | – | – | –
trh (trachealess) | DRSC08739 | 0.32 | 0.24 | – | – | –
RpS3A (Ribosomal protein S3A) | DRSC17168 | -2.16 | -3.08 | – | – | reduced secretion
Ctf4 (Chromosome transmission fidelity 4) | DRSC06380 | 0.4 | 0.4 | – | – | –
Vha100-2 (Vacuolar H[+] ATPase 100kD subunit 2) | DRSC14152 | 0.5 | 0.47 | – | – | –
CG13794 | DRSC02298 | 0.27 | 0.22 | – | – | –
CG8534 | DRSC16439 | 0.24 | 0.22 | – | – | –
CG3308 | DRSC15474 | 0.32 | 0.36 | – | – | –
Trm7-32 (tRNA methyltransferase 7-32) | DRSC15741 | 0.42 | 0.46 | – | – | –
slp2 (sloppy paired 2) | DRSC00836 | 0.35 | 0.25 | – | – | –
CG14071 | DRSC02374 | -0.15 | 0.24 | – | – | –
CG9609 | DRSC20199 | 0.24 | 0.25 | – | – | –
CG8051 | DRSC20077 | 0.35 | 0.47 | – | – | –
CG12071 | DRSC14471 | -1.6 | -1.24 | – | – | reduced secretion
GC (gamma-glutamyl carboxylase) | DRSC08396 | 0.33 | 0.27 | – | – | –
GstE13 (Glutathione S transferase E13) | DRSC06083 | 0.46 | 0.49 | – | – | –
Xbp1 (X box binding protein-1) | DRSC04553 | 0.74 | 0.58 | – | – | –
Xbp1 (X box binding protein-1) | DRSC21624 | 0.02 | 0.38 | – | – | –

5 entries from above, limited to “z-score, replicate 2”:
CG3308 [DRSC15474]	0.36
Trm7-32 (tRNA methyltransferase 7-32) [DRSC15741]	0.46
slp2 (sloppy paired 2) [DRSC00836]	0.25
CG14071 [DRSC02374]	0.24
CG9609 [DRSC20199]	0.25

Continued.
target | amplicon | z-score, replicate 1 | z-score, replicate 2 | z-score, replicate 3 | z-score, replicate 4 | phenotype, replicate 1
CG1888 | DRSC06797 | 0.32 | 0.29 | – | – | –
Tapdelta (Translocon-associated protein delta) | DRSC05946 | 0.45 | 0.32 | – | – | –
CG13297 | DRSC09971 | 0.11 | 0.26 | – | – | –
CG6885 | DRSC10740 | 0.39 | -0.07 | – | – | –
crq (croquemort) | DRSC00810 | 0.15 | 0.21 | – | – | –
Atg10 (Autophagy-related 10) | DRSC06172 | 0.46 | 0.34 | – | – | –
IM33 (Immune induced molecule 33) | DRSC00476 | -0.03 | 0.16 | – | – | –
Cbp20 (cap binding protein 20) | DRSC16601 | 0.19 | -0.26 | – | – | –
CG4570 | DRSC15602 | 0.25 | 0.33 | – | – | –
Grx1 (Glutaredoxin 1) | DRSC10727 | -0.69 | -1.19 | – | – | –
CG6937 | DRSC16140 | 0.13 | -0.42 | – | – | –
Cap-D3 + tomb | DRSC02347 | 0.19 | 0.24 | – | – | –
His2B:CG33894 + His2B:CG33872 + His2B:CG33902 + 20 more | DRSC21265 | -3.34 | -3.6 | – | – | reduced secretion
Cyp4d14 (Cytochrome P450 4d14) | DRSC18457 | 0.04 | 0.26 | – | – | –
Z600 | DRSC11317 | 0.14 | 0.04 | – | – | –
CG31301 | DRSC22164 | -0.54 | 0.43 | – | – | –
CG17593 | DRSC00504 | 0.2 | 0.32 | – | – | –
AANATL3 (Arylalkylamine N-acetyltransferase-like 3) | DRSC02089 | -0.05 | 0.2 | – | – | –
CkIIbeta2 (Casein kinase II beta2 subunit) | DRSC07361 | 0.05 | 0.09 | – | – | –
Eo (Ecdysone oxidase) | DRSC20187 | 0.27 | 0.33 | – | – | –
Mfe2 (peroxisomal Multifunctional enzyme type 2) | DRSC19869 | 0.44 | 0.53 | – | – | –
tkv + CR14033 + tRNA:Asp-GTC-2-1 + 1 more | DRSC00861 | 0.2 | 0.34 | 0.07 | 0.19 | –
Pur-alpha (Purine-rich binding protein-alpha) | DRSC17166 | 0.38 | 0.23 | – | – | –
pcs (parcas) | DRSC07042 | 0.28 | 0.43 | – | – | –
CG15333 | DRSC18016 | 0.37 | 0.56 | – | – | –
CG15333 | DRSC18153 | 0.19 | 0.56 | – | – | –
dwg (deformed wings) | DRSC18766 | 0.41 | 0.16 | – | – | –
Vajk3 | DRSC01883 | 0.04 | 0.05 | – | – | –
Hk (Hyperkinetic) | DRSC17638 | -1 | -0.88 | – | – | –
Hk (Hyperkinetic) | DRSC17639 | -1.86 | -2.28 | – | – | reduced secretion
Hk (Hyperkinetic) | DRSC18138 | -0.14 | -0.8 | – | – | –
Hk (Hyperkinetic) | DRSC18674 | -0.87 | -0.21 | – | – | –
Bbd (Bombardier) | DRSC06709 | -0.25 | 0.42 | – | – | –
Trs31 (TRAPP subunit 31) | DRSC05975 | -0.26 | -0.28 | – | – | –
Sgp (Sgroppino) | DRSC02195 | 0.3 | 0.36 | – | – | –
Piezo | DRSC03092 | 0.19 | 0.31 | – | – | –
Piezo | DRSC03391 | 0.49 | 0.18 | – | – | –
